{
  "source": "patent US20240407413A1",
  "about": "“Concentrates Compromising Stevia Blends and Uses” (The Coca-Cola Company, priority 2018, published 2024)",
  "key": {"[1]": {"test": "Sensory evaluation for diet lemon lime carbonated beverage", "conditions": "4° C."}, "[2]": {"test": "Sensory evaluation for diet cola carbonated beverage", "conditions": "4° C."}},
  "data": [
    {"molecule": "C=C1C[C@@]23CCC4[C@](C)(C(=O)OC5OC(CO)C(O)C(OC6OC(CO)C(O)C(O)C6O)C5OC5OC(CO)C(O)C(O)C5O)CCC[C@@]4(C)[C@@H]2CCC1(OC1OC(CO)C(O)C(OC2OC(CO)C(O)C(O)C2O)C1OC1OC(CO)C(O)C(O)C1O)C3", "note": "(stereo partly drawn) [Reb-M, 13-[(2-O-β-D-glucopyranosyl-3-O-β-D-glucopyranosyl-β-D-glucopyranosyl)oxy] ent kaur-16-en-19-oic acid-[(2-O-β-D-glucopyranosyl-3-O-β-D-glucopyranosyl-β-D-glucopyranosyl) ester]]", "values": [
      {"measurement": "Average Panelist Rating (1 = most preferred, 5 = least preferred)", "setting": "[1]; 500 ppm in finished beverage", "result": 4.1},
      {"measurement": "Average Panelist Rating (1 = most preferred, 5 = least preferred)", "setting": "[1]; 512 ppm in finished beverage", "result": 4.2},
      {"measurement": "Average Panelist Rating (1 = most preferred, 5 = least preferred)", "setting": "[2]; 500 ppm in finished beverage", "result": 2.6},
      {"measurement": "Average Panelist Rating (1 = most preferred, 5 = least preferred)", "setting": "[2]; 512 ppm in finished beverage", "result": 2.8}
    ]}
  ]
}
